Data on 4 molecules can be found in paper PMC5427108.

Amino acid sequences for entries named in this document (tags omitted). A change or cut given only in a name is not applied to a line headed by its entry.
UniProt B7FA17: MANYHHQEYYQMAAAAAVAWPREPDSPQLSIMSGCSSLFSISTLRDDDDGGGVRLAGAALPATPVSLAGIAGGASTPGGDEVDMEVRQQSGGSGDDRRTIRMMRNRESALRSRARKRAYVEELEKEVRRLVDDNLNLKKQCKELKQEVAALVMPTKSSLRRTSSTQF
UniProt Q06967: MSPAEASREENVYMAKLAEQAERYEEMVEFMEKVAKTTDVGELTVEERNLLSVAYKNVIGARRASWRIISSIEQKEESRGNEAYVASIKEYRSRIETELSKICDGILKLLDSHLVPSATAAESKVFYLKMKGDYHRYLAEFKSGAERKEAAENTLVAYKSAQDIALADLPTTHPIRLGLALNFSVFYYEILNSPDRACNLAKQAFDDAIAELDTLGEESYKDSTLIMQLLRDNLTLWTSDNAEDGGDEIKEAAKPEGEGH
UniProt Q2R2W2: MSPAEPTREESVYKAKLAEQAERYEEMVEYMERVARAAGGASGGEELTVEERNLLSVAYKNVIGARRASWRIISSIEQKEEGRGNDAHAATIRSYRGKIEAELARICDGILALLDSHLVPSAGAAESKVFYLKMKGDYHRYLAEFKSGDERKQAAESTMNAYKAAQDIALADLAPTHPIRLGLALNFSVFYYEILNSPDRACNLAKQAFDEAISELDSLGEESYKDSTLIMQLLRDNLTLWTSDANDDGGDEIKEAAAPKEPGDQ
UniProt P40392: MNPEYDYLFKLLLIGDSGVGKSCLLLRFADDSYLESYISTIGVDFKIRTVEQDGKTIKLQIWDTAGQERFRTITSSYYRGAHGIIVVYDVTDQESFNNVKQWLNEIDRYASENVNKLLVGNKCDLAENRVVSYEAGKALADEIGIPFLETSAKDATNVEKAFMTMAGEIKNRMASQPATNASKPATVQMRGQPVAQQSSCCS

No constants are given. Whether binding was seen depends on the method and setting. Binding seen in cells or lysates may run through a third protein. These calls come from enrichment with a bait or labelling near it, and not all partners need be listed.

For one test, the target named is BirAG-OsFD1 (rice). The test can be described thus: proximity labelling; BioID in rice protoplasts transfected with pUbi::BirAG fusions; 24 h in WI with 50 uM biotin; biotinylated proteins captured on streptavidin Dynabeads, on-bead trypsin, nano LC-MS/MS; controls pUbi::WTBirA, pUbi::BirAG and pUbi::BirAG-FD1.
The target in another test is BirAG-OsFD2 (rice) (UniProt B7FA17). Described as above.

For the molecule “14-3-3 like protein Q10E23 (from UniProt Q06967)”, the binding entry in the test with BirAG-OsFD1 (rice) is recorded as “binds”.

Regarding “14-3-3 like protein Q2R2W2 (from UniProt Q2R2W2)”, the binding result with BirAG-OsFD1 (rice) is recorded as “binds”.

Take “Q0JLX8 (Os01g0558600), Ras-related RIC1 (from UniProt P40392 1-202)”: in the test with BirAG-OsFD2 (rice), the binding result is recorded as “binds”.

B1: Q5VMJ3 (Os06g0152100), actin monomer binding protein (protein, UniProt Q5VMJ3 1-131)
chain: MSWQAYVDDHLMCEIDGNHLTAAAIVGHDGSVWAQSPNFPQYKPEEITGIMKDFDEPGSLAPTGLFLGGTKYMVIQGEPGVVIRGKKGTGGICVKKTGLSLILGIYDEPMTPGQCNMIVERLGDYLIEQGC
Take B1: the binding result with BirAG-OsFD2 (rice) and with BirAG-OsFD1 (rice) was “binds” in each case.
